Measured values from paper doi:10.1101/2020.03.12.988840.
These are yes or no findings as the source states them, for the method shown. In cells and extracts the contact can be indirect. Some binding calls cover weakened binding; strength is not graded here. Sequences can lack the tags named with a protein.

Tests used:
Experiment in all cases: co-IP
GFP::SYP-3 (C. elegans) = target: T1, GFP::SYP-3 (C. elegans) (UniProt O62238)
T1 sequence: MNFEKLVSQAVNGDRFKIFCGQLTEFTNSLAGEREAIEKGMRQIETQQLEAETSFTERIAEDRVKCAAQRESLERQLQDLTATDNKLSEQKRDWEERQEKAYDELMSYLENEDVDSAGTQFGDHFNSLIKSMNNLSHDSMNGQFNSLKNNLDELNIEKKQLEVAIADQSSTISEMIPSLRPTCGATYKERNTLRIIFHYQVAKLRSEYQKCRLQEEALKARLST

MRE-11::GFP (C. elegans) = target: T2, MRE-11::GFP (C. elegans) (UniProt Q23255)
T2 sequence: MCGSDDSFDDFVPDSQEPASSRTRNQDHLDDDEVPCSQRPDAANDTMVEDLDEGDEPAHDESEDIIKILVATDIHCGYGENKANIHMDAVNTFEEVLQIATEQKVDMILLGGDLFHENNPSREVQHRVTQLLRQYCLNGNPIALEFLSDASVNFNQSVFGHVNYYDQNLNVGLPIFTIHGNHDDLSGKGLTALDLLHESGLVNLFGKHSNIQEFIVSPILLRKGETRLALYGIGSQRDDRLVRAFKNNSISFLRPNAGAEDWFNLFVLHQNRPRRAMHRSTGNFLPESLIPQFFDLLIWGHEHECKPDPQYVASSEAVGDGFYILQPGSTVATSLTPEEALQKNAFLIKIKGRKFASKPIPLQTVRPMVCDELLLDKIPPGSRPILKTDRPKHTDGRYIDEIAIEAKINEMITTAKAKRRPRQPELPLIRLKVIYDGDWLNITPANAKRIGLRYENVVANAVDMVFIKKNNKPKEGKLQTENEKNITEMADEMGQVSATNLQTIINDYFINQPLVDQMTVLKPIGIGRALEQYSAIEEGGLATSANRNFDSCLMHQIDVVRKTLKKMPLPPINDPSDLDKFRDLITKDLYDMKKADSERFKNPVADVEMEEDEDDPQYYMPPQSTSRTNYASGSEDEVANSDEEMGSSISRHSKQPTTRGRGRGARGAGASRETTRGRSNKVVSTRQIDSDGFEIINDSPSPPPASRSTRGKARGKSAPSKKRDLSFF

REC-8::GFP (C. elegans) = target: T3, REC-8::GFP (C. elegans) (UniProt Q9XUB3)
T3 sequence: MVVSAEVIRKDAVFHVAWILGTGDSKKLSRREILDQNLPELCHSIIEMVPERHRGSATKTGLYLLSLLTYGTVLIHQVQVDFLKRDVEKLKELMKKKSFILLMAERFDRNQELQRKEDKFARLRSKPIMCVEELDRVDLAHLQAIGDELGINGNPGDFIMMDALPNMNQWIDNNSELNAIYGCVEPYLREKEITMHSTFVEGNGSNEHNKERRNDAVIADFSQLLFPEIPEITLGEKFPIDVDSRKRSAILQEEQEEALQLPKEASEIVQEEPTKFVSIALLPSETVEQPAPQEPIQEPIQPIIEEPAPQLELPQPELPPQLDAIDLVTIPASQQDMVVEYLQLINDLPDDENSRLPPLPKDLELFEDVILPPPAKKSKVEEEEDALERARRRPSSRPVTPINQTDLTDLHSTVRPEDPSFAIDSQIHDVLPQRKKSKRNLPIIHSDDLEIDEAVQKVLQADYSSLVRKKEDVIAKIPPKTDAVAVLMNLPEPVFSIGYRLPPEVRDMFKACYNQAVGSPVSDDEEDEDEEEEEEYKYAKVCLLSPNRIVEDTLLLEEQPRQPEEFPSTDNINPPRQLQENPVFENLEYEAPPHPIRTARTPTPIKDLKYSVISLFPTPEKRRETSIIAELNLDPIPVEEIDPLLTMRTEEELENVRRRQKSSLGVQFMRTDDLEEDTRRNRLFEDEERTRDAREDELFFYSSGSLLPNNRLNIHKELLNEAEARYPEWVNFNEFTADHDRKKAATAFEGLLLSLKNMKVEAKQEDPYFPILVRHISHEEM

Measured: binding

B1: PARG-1 (poly(ADP-ribose) glycohydrolase), endogenous (enzyme, UniProt Q867X0 1-781)
chain: MSKKFIELGDPVTQDEKDYEDYVGVGFAHQVPTMKRRKLTEHGNTTESKEDPEEPKSRDVFVSSQSSDESQEDSAENPEIAKEVSENCENLTETLKISNIESLDNVTERSEHTLDNHKSTEPMEEDVNNKSNIDVAINSDEDDELVLEENNKEMRDGEQVQQDLFADDQELIEYPGIMKDTTTQLDITDSEVETAQKMEMIEETEADSTFVGEDSKNQRQSGTTSDEVDADSQINLATKTVRTSSSSFLSTVSTCEAPAKGRARMYQKELEKHVIAFTEGNLTLQPDLNKVDPDRNYRYCTIPNFPASQGKLREDNRYGPKIVLPQRWREFDSRGRRRDSYFYFKRKLDGYLKCYKTTGYFMFVGLLHNMWEFDPDITYKLPALEMYYKEMSELVGREEVLEKFARVARIAKTAEDILPERIYRLVGDVESATLSHKQCAALVARMFFARPDSPFSFCRILSSDKSICVEKLKFLFTYFDKMSMDPPDGAVSFRLTKMDKDTFNEEWKDKKLRSLPEVEFFDEMLIEDTALCTQVDFANEHLGGGVLNHGSVQEEIRFLMCPEMMVGMLLCEKMKQLEAISIVGAYVFSSYTGYGHTLKWAELQPNHSRQNTNEFRDRFGRLRVETIAIDAILFKGSKLDCQTEQLNKANIIREMKKASIGFMSQGPKFTNIPIVTGWWGCGAFNGDKPLKFIIQVIAAGVADRPLHFCSFGEPELAAKCKKIIERMKQKDVTLGMLFSMINNTGLPHKHFEFYVFDRISTYLSSSEDVESSKSSPSVSRA
binds: all assays above
